Reference: publication PMC10920779, “Targeting P2Y14R protects against necroptosis of intestinal epithelial cells through PKA/CREB/RIPK1 axis in ulcerative colitis” (Nature Communications, 2024)
The source holds more than one record for some entries. This list holds those alone. The source may hold further records. Results that share an entry differ for a reason that is not stated; dose, time, organism, isomer or construct need not be as stated for each record.

Tested on: DSS-induced colitis in mice
Test: DSS-induced acute colitis in WT mice, P2Y14R antagonist treatment (body weight, DAI, colon length, H&E, tight junction staining, TEM)
Set-up: scale not given here
Conditions: DSS-treated mice

For `O=C(O)c1cc(-c2ccc(C3CCNCC3)cc2)c2ccc(-c3ccc(C(F)(F)F)cc3)cc2c1` [PPTN], the DAI (Day 4) was 3, 1, 2, the DAI (Day 6) was 4 and 2 and the DAI (Day 7) was 3, 2, 5.
